PubChem BioAssay AID1224830 | NIAID, 2016
Here is an unselected part of about 18,000 reagents. Over the whole deposit, about 2,900 (16%) are marked active. 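Calls are made per well; low scores hint the gene aids the LPS response, high scores that it dampens it.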 Repeated entries: four replicate wells of each siRNA pool.

- Test: 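Regulators of TLR4 signalling towards TNF-alpha in macrophage-like cells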 (primary screen)
- Cells: human THP-1 monocytic leukaemia cells, TNF dual-luciferase reporter clone, PMA-differentiated to macrophage-like cells
- Knock-down reagent: siRNA pool against human genes, 50 nM
- Time to read-out: LPS for 4 h, given about 3 days after siRNA transfection
- Conditions: bacterial LPS (TLR4 ligand), 10 ng/ml
- Detection: 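TNF firefly reporter luminescence divided by renilla, normalised to the plate median, then turned into a robust z-score for each replicate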
- Scale: TNF reporter robust z-score: higher = stronger TNF reporter response to LPS
- Rule for the call: 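a well is active when its z-score exceeds 2.8 or falls below -1.5; control wells carry no call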

gene | TNF reporter robust z-score | Outcome
THRAP3 (GeneID 9967) | 0.37 | inactive
THRAP3 (GeneID 9967) | 0.13 | inactive
THRAP3 (GeneID 9967) | 0.25 | inactive
THRAP3 (GeneID 9967) | -0.31 | inactive
PHLPP2 (GeneID 23035) | 0.08 | inactive
PHLPP2 (GeneID 23035) | 0.5 | inactive
PHLPP2 (GeneID 23035) | 0.92 | inactive
PHLPP2 (GeneID 23035) | 1.47 | inactive
TBC1D3G (GeneID 101060321) | -0.38 | inactive
TBC1D3G (GeneID 101060321) | 1.51 | inactive
TBC1D3G (GeneID 101060321) | 0.41 | inactive
TBC1D3G (GeneID 101060321) | 1.01 | inactive
COQ10A (GeneID 93058) | -0.14 | inactive
COQ10A (GeneID 93058) | -0.42 | inactive
COQ10A (GeneID 93058) | 0.19 | inactive
WRN (GeneID 7486) | -0.91 | inactive
WRN (GeneID 7486) | -0.44 | inactive
WRN (GeneID 7486) | -0.76 | inactive
WRN (GeneID 7486) | -0.48 | inactive
MCCC1 (GeneID 56922) | 0.22 | inactive
MCCC1 (GeneID 56922) | 1.09 | inactive
MCCC1 (GeneID 56922) | 1.73 | inactive
MCCC1 (GeneID 56922) | 0.46 | inactive
TRAK1 (GeneID 22906) | 1.68 | inactive
TRAK1 (GeneID 22906) | 0.9 | inactive
TRAK1 (GeneID 22906) | 1.98 | inactive
TRAK1 (GeneID 22906) | 1.45 | inactive
RIPK2 (GeneID 8767) | 0.29 | inactive
RIPK2 (GeneID 8767) | 0.71 | inactive
RIPK2 (GeneID 8767) | 0.64 | inactive
RIPK2 (GeneID 8767) | 1.64 | inactive
OGT (GeneID 8473) | -0.99 | inactive
OGT (GeneID 8473) | -0.74 | inactive
OGT (GeneID 8473) | -0.88 | inactive
OGT (GeneID 8473) | -0.92 | inactive
FKBP4 (GeneID 2288) | 0.09 | inactive
FKBP4 (GeneID 2288) | -0.18 | inactive
FKBP4 (GeneID 2288) | -0.01 | inactive
FKBP4 (GeneID 2288) | -0.08 | inactive
SPEF1 (GeneID 25876) | 0.34 | inactive
SPEF1 (GeneID 25876) | 0.41 | inactive
SPEF1 (GeneID 25876) | 0.71 | inactive
SPEF1 (GeneID 25876) | 1.24 | inactive
PCSK7 (GeneID 9159) | -0.71 | inactive
PCSK7 (GeneID 9159) | 0.41 | inactive
PCSK7 (GeneID 9159) | -0.73 | inactive
PCSK7 (GeneID 9159) | 0.02 | inactive
CELA2A (GeneID 63036) | 0.41 | inactive
CELA2A (GeneID 63036) | -0.06 | inactive
CELA2A (GeneID 63036) | 0.53 | inactive
CELA2A (GeneID 63036) | 3.13 | active
ZDHHC19 (GeneID 131540) | 1.19 | inactive
ZDHHC19 (GeneID 131540) | 0.73 | inactive
ZDHHC19 (GeneID 131540) | 0.39 | inactive
ZDHHC19 (GeneID 131540) | 1.63 | inactive
HAPSTR1 (GeneID 29035) | 0.23 | inactive
HAPSTR1 (GeneID 29035) | 2.81 | active
HAPSTR1 (GeneID 29035) | 0.27 | inactive
HAPSTR1 (GeneID 29035) | 3.3 | active
SKI (GeneID 6497) | -0.37 | inactive
SKI (GeneID 6497) | -0.69 | inactive
SKI (GeneID 6497) | -0.75 | inactive
SKI (GeneID 6497) | -0.59 | inactive
NDUFAF3 (GeneID 25915) | -0.23 | inactive
NDUFAF3 (GeneID 25915) | 0.29 | inactive
NDUFAF3 (GeneID 25915) | -0.71 | inactive
NDUFAF3 (GeneID 25915) | -0.02 | inactive
PLEC (GeneID 5339) | -0.48 | inactive
PLEC (GeneID 5339) | 0.18 | inactive
PLEC (GeneID 5339) | 0.11 | inactive
PLEC (GeneID 5339) | 0.35 | inactive
CLDN17 (GeneID 26285) | 0.31 | inactive
CLDN17 (GeneID 26285) | 0.29 | inactive
CLDN17 (GeneID 26285) | 0.1 | inactive
CLDN17 (GeneID 26285) | -0.59 | inactive
ZNF668 (GeneID 79759) | 16.2 | active
ZNF668 (GeneID 79759) | 3.93 | active
ZNF668 (GeneID 79759) | -0.34 | inactive
ZNF668 (GeneID 79759) | 1.22 | inactive
LINS1 (GeneID 55180) | -0.2 | inactive
LINS1 (GeneID 55180) | 0.15 | inactive
LINS1 (GeneID 55180) | 0.51 | inactive
LINS1 (GeneID 55180) | -0.57 | inactive
MYNN (GeneID 55892) | -1.52 | active
MYNN (GeneID 55892) | -1.4 | inactive
MYNN (GeneID 55892) | -1.35 | inactive
MYNN (GeneID 55892) | -1.26 | inactive
NDFIP2 (GeneID 54602) | 1.89 | inactive
NDFIP2 (GeneID 54602) | 1.3 | inactive
NDFIP2 (GeneID 54602) | 1.23 | inactive
NDFIP2 (GeneID 54602) | 1.29 | inactive
LCORL (GeneID 254251) | 1.13 | inactive
LCORL (GeneID 254251) | 0.1 | inactive
LCORL (GeneID 254251) | 1.31 | inactive
LCORL (GeneID 254251) | -0.02 | inactive
PRMT5 (GeneID 10419) | 2.04 | inactive
PRMT5 (GeneID 10419) | 0.93 | inactive
PRMT5 (GeneID 10419) | -0.27 | inactive
PRMT5 (GeneID 10419) | 0.72 | inactive
NT5C1B (GeneID 93034) | 0.67 | inactive
NT5C1B (GeneID 93034) | 0.34 | inactive
NT5C1B (GeneID 93034) | 0.24 | inactive
NT5C1B (GeneID 93034) | 1.38 | inactive
H3C4 (GeneID 8351) | 0 | inactive
H3C4 (GeneID 8351) | 0.48 | inactive
H3C4 (GeneID 8351) | -0.05 | inactive
H3C4 (GeneID 8351) | 1.39 | inactive
FAM151A (GeneID 338094) | -1.21 | inactive
FAM151A (GeneID 338094) | -1.15 | inactive
FAM151A (GeneID 338094) | -1.19 | inactive
FAM151A (GeneID 338094) | -1.38 | inactive
